Measured values as given in the supplement of paper PMC5949888.
Most values lie at the floor of the assay. Slopes are relative: functional sequences can read slightly below zero.

Test system: Saccharomyces cerevisiae PS128 hsf1 delta, HSF1(1-493) fusion
Assay: growth estimate (transactivation domain function in HSF1 fusion, heat-shock survival) (a.u. (slope of normalised read count over time)); higher = stronger growth at 37°C, i.e. more transactivation activity
Details: library: random library

Question: NEAFVPLIARAS was tested. Which growth estimate did it give?
Answer: < -0.25

Question: IDRIYYIPLKVQVALRL was tested. Which growth estimate did it give?
Answer: < -0.25

Question: Which growth estimate does the source give for FTQVQVCYRSKYDEKSSNEE here?
Answer: < -0.25

Question: MWSILR was tested. Which growth estimate did it give?
Answer: < -0.25

Question: KVGG was tested. Which growth estimate did it give?
Answer: < -0.25

Question: With VSTRPLAKYPHTREELGIVA as the substance, how does the growth estimate read?
Answer: < -0.25

Question: SRVRWGSVLLLSCT was tested. Which growth estimate did it give?
Answer: < -0.25

Question: How did the growth estimate turn out when NMKYPTNSDRKLAVL was run?
Answer: < -0.25

Question: Which growth estimate does the source give for LALRFSEGLFGQEV here?
Answer: < -0.25

Question: Which growth estimate does the source give for GYRLERGGPTACQDTKARKG here?
Answer: < -0.25

Question: With GPLPGRAMASGPH as the substance, how does the growth estimate read?
Answer: < -0.25

Question: RSLLNALGAYSCIPCHSSGK was tested. Which growth estimate did it give?
Answer: < -0.25

Question: LPRTSEFCCNPN was tested. Which growth estimate did it give?
Answer: < -0.25

Question: For ISSRGGEP, which growth estimate is on record?
Answer: < -0.25

Question: Which growth estimate does the source give for NTGYR here?
Answer: < -0.25

Question: For HSRS, which growth estimate is on record?
Answer: < -0.25

Question: For SHGSISSGR, which growth estimate is on record?
Answer: < -0.25

Question: Which growth estimate does the source give for SLCPISSRGKIMGGPLLHVL here?
Answer: < -0.25

Question: For IVQGLSMETHT, which growth estimate is on record?
Answer: < -0.25

Question: With VLEYLWVGRAAVR as the substance, how does the growth estimate read?
Answer: < -0.25

Question: For ASESGSSIP, which growth estimate is on record?
Answer: < -0.25

Question: How did the growth estimate turn out when SGPLPVEIRDGISVRGLVCC was run?
Answer: < -0.25

Question: Which growth estimate does the source give for SIMTRASAAVVLASSDH here?
Answer: < -0.25

Question: For RTRSWYSMSIGSIGRSTISA, which growth estimate is on record?
Answer: < -0.25

Question: Which growth estimate does the source give for CEAMLWTVSNHSIKGRIAVK here?
Answer: < -0.25

Question: With RKVFSNWAVNARNRLIETLF as the substance, how does the growth estimate read?
Answer: < -0.25

Question: RMPGTM was tested. Which growth estimate did it give?
Answer: < -0.25

Question: With SETCRLGVRDPNSARPACEV as the substance, how does the growth estimate read?
Answer: < -0.25

Question: With NSYGGVRPQSH as the substance, how does the growth estimate read?
Answer: < -0.25

Question: For GLSIQERDIPDRELGPFGDP, which growth estimate is on record?
Answer: < -0.25

Question: Which growth estimate does the source give for NEAVNGVLSYIMAGDSTLST here?
Answer: < -0.25

Question: How did the growth estimate turn out when KKGRRTAGAARSDVLV was run?
Answer: < -0.25

Question: With GQLVGCTDTWDRLRGGAIQF as the substance, how does the growth estimate read?
Answer: -0.25

Question: With RINWPYVFRRLWALSTGNFV as the substance, how does the growth estimate read?
Answer: < -0.25

Question: For CRRSLQHTAQSITDRKCVAH, which growth estimate is on record?
Answer: < -0.25

Question: With TRIRRYARMEAITPTLGLST as the substance, how does the growth estimate read?
Answer: < -0.25

Question: Which growth estimate does the source give for VEGAQVGIIGLGPCCGQYQQ here?
Answer: < -0.25

Question: NSFSGRCNGLLTAT was tested. Which growth estimate did it give?
Answer: < -0.25

Question: VPTLREGGRDAFDWLY was tested. Which growth estimate did it give?
Answer: < -0.25

Question: Which growth estimate does the source give for LSDVASEIPHVGRGLH here?
Answer: < -0.25

Question: With ARTGLETMGSTYSFKPSKND as the substance, how does the growth estimate read?
Answer: < -0.25

Question: With RSSREVSHKL as the substance, how does the growth estimate read?
Answer: < -0.25

Question: Which growth estimate does the source give for RTTQTFPRFSATTERQRPSG here?
Answer: < -0.25

Question: WENHIIGLRTLSKVRLDRAS was tested. Which growth estimate did it give?
Answer: < -0.25

Question: With AADEWVPVS as the substance, how does the growth estimate read?
Answer: < -0.25

Question: Which growth estimate does the source give for QFGPLASQSKTGVIS here?
Answer: < -0.25

Question: With SQPIRQSAQLDRGVLQGPQP as the substance, how does the growth estimate read?
Answer: < -0.25

Question: Which growth estimate does the source give for CPSSQLR here?
Answer: < -0.25

Question: Which growth estimate does the source give for IWTRTPSL here?
Answer: < -0.25

Question: How did the growth estimate turn out when RGYIW was run?
Answer: < -0.25

Question: SPVSPSPLSCHSS was tested. Which growth estimate did it give?
Answer: < -0.25

Question: With RTLTAAFRGHNRI as the substance, how does the growth estimate read?
Answer: -0.231

Question: How did the growth estimate turn out when LCCLRR was run?
Answer: < -0.25

Question: Which growth estimate does the source give for SLSNRQYLYL here?
Answer: < -0.25

Question: Which growth estimate does the source give for RTRVLPQLWSCLFVA here?
Answer: < -0.25

Question: QNGLSAFF was tested. Which growth estimate did it give?
Answer: < -0.25

Question: With ALDLKY as the substance, how does the growth estimate read?
Answer: -0.243

Question: How did the growth estimate turn out when RQLESTFLASYCIRETYHEA was run?
Answer: < -0.25

Question: Which growth estimate does the source give for AIRSQFTNGQSRSRQFAELR here?
Answer: < -0.25

Question: With VYEPKLRTTSIGEGAVGKMV as the substance, how does the growth estimate read?
Answer: < -0.25

Question: For QTGDTLSGNCRRPFAAFHKA, which growth estimate is on record?
Answer: < -0.25

Question: AARR was tested. Which growth estimate did it give?
Answer: < -0.25

Question: For QPVPATPADA, which growth estimate is on record?
Answer: < -0.25

Question: Which growth estimate does the source give for CWIY here?
Answer: < -0.25

Question: Which growth estimate does the source give for RREIGNTVYGEIGWTDSNVT here?
Answer: < -0.25

Question: For RYNGKGQKCTARHCSDQSRS, which growth estimate is on record?
Answer: < -0.25

Question: Which growth estimate does the source give for FRPMPCTEVPRELRACTPHD here?
Answer: < -0.25

Question: With VHRSTVFPGRAASDALYNVD as the substance, how does the growth estimate read?
Answer: < -0.25

Question: CEALLMMSR was tested. Which growth estimate did it give?
Answer: < -0.25

Question: How did the growth estimate turn out when DNNVIHVHGAAPFQKVANRP was run?
Answer: < -0.25

Question: ISLTFVGRSFIYNFCAVRPW was tested. Which growth estimate did it give?
Answer: < -0.25

Question: For HNRSVTRQDGRIRARFIKRR, which growth estimate is on record?
Answer: < -0.25

Question: With LVERDRTLGVER as the substance, how does the growth estimate read?
Answer: < -0.25

Question: Which growth estimate does the source give for AVFTSRRRKGHHEIVLCSTI here?
Answer: < -0.25

Question: How did the growth estimate turn out when SVRSRVRGEREVVTVRIDWR was run?
Answer: < -0.25

Question: NYGDAVFLALYRLHSLGRIS was tested. Which growth estimate did it give?
Answer: < -0.25

Question: For VVRITGVIIIDAPGGKTSAA, which growth estimate is on record?
Answer: < -0.25

Question: With QSRSWVPPEDSSWYCQLRTP as the substance, how does the growth estimate read?
Answer: < -0.25

Question: For LGGIHALR, which growth estimate is on record?
Answer: -0.246

Question: RSLCTMIGIFVVH was tested. Which growth estimate did it give?
Answer: < -0.25

Question: For SVSAV, which growth estimate is on record?
Answer: < -0.25

Question: How did the growth estimate turn out when LVIHMRDMQA was run?
Answer: < -0.25

Question: Which growth estimate does the source give for SLDTAESVSMLYKGIHLTDL here?
Answer: -0.168

Question: For TTSSVKSPSERITLFASLLL, which growth estimate is on record?
Answer: -0.248

Question: With LWRIGLGSSGLARRRKLRLN as the substance, how does the growth estimate read?
Answer: -0.055

Question: For GNSGKLGVWGVVYQPSTLFT, which growth estimate is on record?
Answer: < -0.25

Question: Which growth estimate does the source give for PLLPVLDFRVYCAIVPYD here?
Answer: < -0.25

Question: How did the growth estimate turn out when CRGRNVGKRT was run?
Answer: -0.237

Question: With CRGGGATQFIWLCYR as the substance, how does the growth estimate read?
Answer: < -0.25

Question: IWD was tested. Which growth estimate did it give?
Answer: < -0.25

Question: With SRKSLISGNL as the substance, how does the growth estimate read?
Answer: < -0.25

Question: Which growth estimate does the source give for PIVWLRQFK here?
Answer: -0.203

Question: How did the growth estimate turn out when VLLLIFDFIKTWV was run?
Answer: < -0.25

Question: LRESTVPRVRWAGRRRPLPG was tested. Which growth estimate did it give?
Answer: -0.246

Question: For RARVILVGYRHRLMLGRQPS, which growth estimate is on record?
Answer: < -0.25

Question: With GSLIP as the substance, how does the growth estimate read?
Answer: < -0.25

Question: With GYIL as the substance, how does the growth estimate read?
Answer: < -0.25

Question: For AEIGR, which growth estimate is on record?
Answer: < -0.25

Question: With AVILASWYPRTTMWKCP as the substance, how does the growth estimate read?
Answer: < -0.25
